Data as given in PubChem BioAssay AID1259308 (NCATS, 2017)
In all, the deposit lists about 59,000 reagents; shown is an unselected part. In the full data, about 1,510 (2.6%) got an active call. 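Calls use total luciferase alone and ignore viability, so some active siRNAs may act by altering cell number.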 Entries without a mark were called inactive. The numbers tell different reagents against one gene apart.

Aim: 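Knock-downs that increase output of a recombinant reporter protein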 (primary screen)
System: human HEK293 embryonic kidney cells stably expressing firefly luciferase (HEK-CMV-Luc2-Hygro)
Knock-down reagent: single siRNA against human genes, 0.8 pmol siRNA per well
Duration: 72 h
Detection: 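Luciferase light (ONE-Glo) measured on one replicate plate set and viability (CellTiter-Glo) on the other, scaled to a negative control siRNA, with robust z-scores and luciferase per cell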
Reading the numbers: total luciferase, z-score and total luciferase, % of control: higher = more reporter protein produced; luciferase per cell, z-score: higher = more reporter output per viable cell; viable cells, % of control: higher = more viable cells
Rule for the call: 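Active when the median/MAD z-score for overall luciferase is greater than 3; a gene was taken forward for validation with new siRNAs if at least two of its three siRNAs passed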
Calls: active = raised luciferase; inactive = no rise

Target gene	siRNA no.	total luciferase, z-score	total luciferase, % of control	luciferase per cell, z-score	viable cells, % of control
GCGR (glucagon receptor)	1	-0.16	78.7	-0.333	96
GCGR (glucagon receptor)	2	2.63	134	1.94	90
GCGR (glucagon receptor)	3	-1.39	54.3	-1.61	92.8
UBD (ubiquitin like modifier D)	1	-0.613	69.7	-0.995	101
UBD (ubiquitin like modifier D)	2	0.0827	83.5	-0.417	104
UBD (ubiquitin like modifier D)	3	-0.0963	80	0.316	82.2
PATE4 (prostate and testis expressed 4)	1	-0.144	79	-0.0597	89.7
PATE4 (prostate and testis expressed 4)	2	-0.815	65.7	0.543	63.6
PATE4 (prostate and testis expressed 4)	3	0.495	91.7	0.322	94.2
ZBED8 (zinc finger BED-type containing 8)	1	-0.883	64.3	-0.839	89.6
ZBED8 (zinc finger BED-type containing 8)	2	0.562	93.1	0.171	99.4
ZBED8 (zinc finger BED-type containing 8)	3	0.169	85.3	-0.35	104
OR5AU1 (olfactory receptor family 5 subfamily AU member 1)	1	0.49	91.6	0.373	92.8
OR5AU1 (olfactory receptor family 5 subfamily AU member 1)	2	-3.36	15	-3.18	38.6
OR5AU1 (olfactory receptor family 5 subfamily AU member 1)	3	1.64	115	1.67	82.5
FBXO42 (F-box protein 42)	1	-0.769	66.6	-1.25	104
FBXO42 (F-box protein 42)	2	0.789	97.6	0.272	101
FBXO42 (F-box protein 42)	3	-0.386	74.2	-0.921	106
NUDCD1 (NudC domain containing 1)	1	-0.198	78	-0.182	91.4
NUDCD1 (NudC domain containing 1)	2	3.13 (active)	144	1.77	101
NUDCD1 (NudC domain containing 1)	3	-0.593	70.1	-0.926	99.9
POLA1 (DNA polymerase alpha 1, catalytic subunit)	1	0.158	85	0.743	78.1
POLA1 (DNA polymerase alpha 1, catalytic subunit)	2	-0.0275	81.3	-0.207	96
POLA1 (DNA polymerase alpha 1, catalytic subunit)	3	-0.531	71.3	-0.506	91
PPP1R14C (protein phosphatase 1 regulatory inhibitor subunit 14C)	1	0.381	89.5	0.102	97.3
PPP1R14C (protein phosphatase 1 regulatory inhibitor subunit 14C)	2	-1.37	54.6	-1.6	92.9
PPP1R14C (protein phosphatase 1 regulatory inhibitor subunit 14C)	3	1.82	118	0.984	102
DSTNP4 (DSTN pseudogene 4)	1	0.636	94.5	0.127	102
DSTNP4 (DSTN pseudogene 4)	2	1.24	107	1.49	80.5
DSTNP4 (DSTN pseudogene 4)	3	-0.473	72.5	-0.281	87.2
ZNF264 (zinc finger protein 264)	1	-1.03	61.5	-0.335	75
ZNF264 (zinc finger protein 264)	2	-2	42.1	-1.44	68.8
ZNF264 (zinc finger protein 264)	3	-0.12	79.5	0.339	81.3
RDH10 (retinol dehydrogenase 10)	1	1.28	107	1.07	90.5
RDH10 (retinol dehydrogenase 10)	2	1.02	102	2.26	63.1
RDH10 (retinol dehydrogenase 10)	3	0.225	86.4	0.502	84.5
AK7 (adenylate kinase 7)	1	-0.0659	80.6	0.104	87.6
AK7 (adenylate kinase 7)	2	0.139	84.6	-0.106	97.3
AK7 (adenylate kinase 7)	3	0.792	97.6	1.04	83
LINC00614 (long intergenic non-protein coding RNA 614)	1	0.0707	83.3	0.209	88.1
LINC00614 (long intergenic non-protein coding RNA 614)	2	-2.15	39.1	-2.38	81.6
LINC00614 (long intergenic non-protein coding RNA 614)	3	-0.481	72.3	-0.689	96.9
PHF3 (PHD finger protein 3)	1	1.56	113	0.372	114
PHF3 (PHD finger protein 3)	2	-0.483	72.3	-0.691	96.9
PHF3 (PHD finger protein 3)	3	0.141	84.7	0.325	86.9
KIF11 (kinesin family member 11)	1	-1.89	44.4	-0.337	54.2
KIF11 (kinesin family member 11)	2	-2.22	37.6	-0.519	48.2
KIF11 (kinesin family member 11)	3	-1.96	43	-0.593	56.1

Continued; the last 3 above are carried over.
Target gene	siRNA no.	total luciferase, z-score	total luciferase, % of control	luciferase per cell, z-score	viable cells, % of control
KIF11 (kinesin family member 11)	1	-1.89	44.4	-0.337	54.2
KIF11 (kinesin family member 11)	2	-2.22	37.6	-0.519	48.2
KIF11 (kinesin family member 11)	3	-1.96	43	-0.593	56.1
ANKRD13C (ankyrin repeat domain 13C)	1	0.119	84.3	0.43	84.1
ANKRD13C (ankyrin repeat domain 13C)	2	0.248	86.8	-0.206	102
ANKRD13C (ankyrin repeat domain 13C)	3	0.952	101	0.041	111
CMSS1 (cms1 ribosomal small subunit homolog)	1	0.0609	83.1	-0.17	97.1
CMSS1 (cms1 ribosomal small subunit homolog)	2	-0.99	62.2	-0.922	88.6
CMSS1 (cms1 ribosomal small subunit homolog)	3	-0.906	63.9	-1.61	109
BMS1P12 (BMS1 pseudogene 12)	1	0.0289	82.5	0.238	86.5
BMS1P12 (BMS1 pseudogene 12)	2	0.528	92.4	0.605	88
BMS1P12 (BMS1 pseudogene 12)	3	1.77	117	1.32	92.5
VPS26B (VPS26 retromer complex component B)	1	-0.749	67	-0.95	96.1
VPS26B (VPS26 retromer complex component B)	2	-0.772	66.5	-0.653	88.3
VPS26B (VPS26 retromer complex component B)	3	-0.277	76.4	-0.395	94.7
FOXK1 (forkhead box K1)	1	0.795	97.7	1.63	71
FOXK1 (forkhead box K1)	2	-2.76	27	-2.04	51.7
FOXK1 (forkhead box K1)	3	-0.238	77.2	0.712	71.5
VPS35L (VPS35 endosomal protein sorting factor like)	1	-0.812	65.7	-0.899	93.1
VPS35L (VPS35 endosomal protein sorting factor like)	2	2.08	123	1.22	99.9
VPS35L (VPS35 endosomal protein sorting factor like)	3	-1.81	45.8	-0.736	62.1
ZSWIM2 (zinc finger SWIM-type containing 2)	1	-0.95	63	-0.261	75.4
ZSWIM2 (zinc finger SWIM-type containing 2)	2	-0.65	69	-0.307	83.5
ZSWIM2 (zinc finger SWIM-type containing 2)	3	0.607	94	0.218	99.1
PREX1	1	0.855	98.9	0.837	88.7
PREX1	2	0.865	99.1	0.687	92.4
PREX1	3	-0.106	79.8	0.457	79.1
ULBP2 (UL16 binding protein 2)	1	-0.4	73.9	-0.705	99.5
ULBP2 (UL16 binding protein 2)	2	1.22	106	0.409	106
ULBP2 (UL16 binding protein 2)	3	1.19	106	0.178	113
